According to publication PMC3320541:
Results are given in words; binding and its absence hold for the method and conditions named. For some assays here: Binding seen in cells or lysates may run through a third protein. For some assays here: Binding can be weak; no strength is given. For some assays here: Sequences can lack the tags named with a protein.

Experiments:
[1] = biological target: HopZ1c::nYFP (and HopZ1c::cYFP in the reciprocal combination) (Pseudomonas syringae); test: split reporter; BiFC with nYFP and cYFP fusions (both combinations) co-expressed by Agrobacterium infiltration in N. benthamiana leaves; 20 uM dexamethasone; confocal imaging 72-96 hours after induction
[2] = biological target: HopZ2::nYFP (and HopZ2::cYFP in the reciprocal combination) (Pseudomonas syringae); test: as above
[3] = biological target: HopZ1c^C/A (Pseudomonas syringae); test: two-hybrid; split-ubiquitin yeast two-hybrid screen (QIS-Seq): membrane-tethered LexA-VP16-Cub bait against the NubG Arabidopsis cDNA prey library in AP-4 yeast; interacting colonies by growth on SD-LeuTrpHis + 3-AT; prey inserts of ~2000 pooled colonies sequenced (Illumina); enrichment against luciferase bait and library
[4] = biological target: HopZ1b^C/A (Pseudomonas syringae); test: as above
[5] = biological target: HopZ3^C/A (Pseudomonas syringae); test: as above

Row | Binder | binding [1] | binding [2] | binding [3] | binding [4] | binding [5]
1 | MLO2^Δ1-280::cYFP (and MLO2^Δ1-280::nYFP in the reciprocal combination) (domain or fragment, UniProt Q9SXB6 281-573) QRSLEKDFKTVVEISPVIWFVAVLFLLTNSYGLRSYLWLPFIPLVVILIVGTKLEVIITKLGLRIQEKGDVVRGAPVVQPGDDLFWFGKPRFILFLIHLVLFTNAFQLAFFAWSTYEFNLNNCFHESTADVVIRLVVGAVVQILCSYVTLPLYALVTQMGSKMKPTVFNDRVATALKKWHHTAKNETKHGRHSGSNTPFSSRPTTPTHGSSPIHLLHNFNNRSVENYPSSPSPRYSGHGHHEHQFWDPESQHQEAETSTHHSLAHESSEPVLASVELPPIRTSKSLRDFSFKK | no binding | binds | – | – | –
2 | Arabidopsis thaliana MLO2 (At1g11310), partial clone of the cDNA prey library (domain or fragment, UniProt Q9SXB6 281-573) QRSLEKDFKTVVEISPVIWFVAVLFLLTNSYGLRSYLWLPFIPLVVILIVGTKLEVIITKLGLRIQEKGDVVRGAPVVQPGDDLFWFGKPRFILFLIHLVLFTNAFQLAFFAWSTYEFNLNNCFHESTADVVIRLVVGAVVQILCSYVTLPLYALVTQMGSKMKPTVFNDRVATALKKWHHTAKNETKHGRHSGSNTPFSSRPTTPTHGSSPIHLLHNFNNRSVENYPSSPSPRYSGHGHHEHQFWDPESQHQEAETSTHHSLAHESSEPVLASVELPPIRTSKSLRDFSFKK | – | – | no binding | no binding | no binding
